Experimental data: PubChem BioAssay AID590 (National Center for Advancing Translational Sciences (NCATS), 2007)
Hit rate of the full screen: of about 59,000 compounds, about 6,500 (11%) were called active. Inconclusive means that the source gave no clear call. Such entries were picked first, then a sample of the others. Cut-off read from the data, not from the text of the source: active = max dye-equivalent concentration above about 10 nM; inconclusive = mostly about 1.1 nM to 9.6 nM; inactive = weaker than that.

Assay: qHTS Assay for Spectroscopic Profiling in A350 Spectral Region
Settings: Compound autofluorescence, 340/450 nm, Alexa 350 dye-equivalents; active compounds read high

SMILES | max dye-equivalent concentration
COc1ccc(-n2nc(C(=O)N3CCN(c4ccc(F)cc4)CC3)c3ccccc3c2=O)c(OC)c1 | inactive
Cc1[nH]nc2c1C(c1ccc(-c3ccccc3C#N)o1)C(C#N)=C(N)O2 (stereo not given) | inconclusive: 1.2 nM
CCCC(=O)Nc1ccc(NC(=O)C23CC4CC(CC(C4)C2)C3)cn1 | inconclusive: 1.3 nM
CCN1CCN(c2nc3c(C)cccn3c(=O)c2/C=C(\C#N)S(=O)(=O)c2ccc(C)cc2)CC1 | active: 27 nM
Cc1cc(N=Cc2c(CO)cnc(C)c2O)c(N=Cc2c(CO)cnc(C)c2O)cc1C.[Zn] | inconclusive: 7.8 nM
Cc1nc2cnc(N(C)C)nc2n(CCc2ccccc2)c1=O | inconclusive: 5.7 nM
O=S(=O)(c1ccccc1)c1nc(-c2cccs2)oc1NCCCn1ccnc1 | inconclusive: 1.4 nM
Cc1nc(NC2=NCN(Cc3ccco3)CN2)nc2ccccc12 | inconclusive: 4.2 nM
COc1ccc(OC)c(C(O)c2coc3ccc(O)c(CN4CCOCC4)c23)c1 (stereo not given) | inconclusive: 2.2 nM
Cc1cc(C)n(S(=O)(=O)Cc2ccccc2)n1 | inconclusive: 4.9 nM
CCc1ccc2c(COC(=O)c3n[nH]c4ccccc34)cc(=O)oc2c1 | inactive
COc1cccc(-c2nn(C)c3sc(C(=O)Nc4ccc5c(c4)OCCO5)cc23)c1 | active: 41 nM
CC1CCCN(C(=O)C2CCN(CC3CC=CCC3)CC2)C1 (stereo not given) | inconclusive: 1.6 nM
CC(=O)c1cccc(NC(=O)C2CCN(S(=O)(=O)c3c(C)n[nH]c3C)CC2)c1 | inconclusive: 4.2 nM
COC(=O)c1[nH]c2ccc(C)cc2c1NC(=O)CCN1CCN(C2CCCCC2)CC1 | inconclusive: 3.1 nM
O=C(CSc1nnnn1-c1ccc(Cl)cc1)N1CCc2ccccc2C1 | inactive
C[C@H](NCCN(C)C)[C@@H]1CCC2C3CCc4cc(O)ccc4[C@H]3CCC21C (stereo not given in full) | inactive
COC(=O)c1ccc(C(=O)OC)c(NS(C)(=O)=O)c1 | active: 32 nM
Cn1cccc1C(=O)N1CCC2(CCCN(C(c3ccccc3)c3ccccc3)C2)CC1 | inactive
O=C(Nc1cccc(F)c1)c1ccc2c(c1)OCO2 | inactive
COC(=O)Cn1cc(C(=O)C2CC2)c2ccccc21 | inactive
CCOc1cc(-c2ccc(N)c(OCC)c2)ccc1N | inactive
Cc1ccc(NC(=O)CS(=O)CC(=O)Nc2ccc3c(c2)OCO3)cc1Cl (stereo not given) | inconclusive: 2.9 nM

SMILES | max dye-equivalent concentration
Cc1nn(-c2nc3ccccc3s2)c(N)c1-c1ccccc1 | inactive
COc1cc(NC(=O)c2ccco2)c(OC)cc1NC(=O)CSc1ncc(-c2ccc(F)cc2)[nH]1 | active: 28 nM
O=C(c1cc(-c2ccccc2)nc2ccccc12)N1CCN(c2ccccn2)CC1 | inactive
CC(=O)Cn1c(CN2CC(C)CC(C)C2)nc2c1c(=O)n(C)c(=O)n2C (stereo not given) | inconclusive: 3.1 nM
CCc1nc(OCCN(CC)CC)c2oc3ccccc3c2n1 | inactive
CC1(C)Cc2c(C#N)c(SCCC#N)nc(N3CCOCC3)c2CS1 | inconclusive: 1.6 nM
O=C(COc1ncnc2ccccc12)NCCCN1CCCC1=O | active: 47 nM
CCN1C(=O)c2cccc3c(NC(=O)C4CCCCC4)ccc1c23 | inactive
O=C(NCC1CCCO1)C1CC(=O)N(C2CCCCCC2)C1 (stereo not given) | inconclusive: 1.6 nM
CCOc1ccc(NC(=O)C(CC)NC(=O)c2ccccc2CO)cc1 (stereo not given) | inconclusive: 6.7 nM
CCN1C(=O)/C(=C2/SC(C)=C(C)N2CC)SC1=S | active: 30 nM
CC(C)C(=O)Nc1ccc(NC(=O)c2cc3ccccc3o2)cc1 | inconclusive: 2.9 nM
N#Cc1c(NCCCO)nc(NCc2ccccc2)c2c1CCN(Cc1ccccc1)C2 | active: 140 nM
COC(=O)c1[nH]c2cccc(C)c2c1NC(=O)CN1CCN(c2ccccc2OC)CC1 | inconclusive: 1.1 nM
CC(=O)Nc1c(C(=O)C2CC2)oc2ccccc12 | inconclusive: 1.1 nM
CCOC(=O)C1CCN(C(=O)c2cc3cc4cc(OC)ccc4nc3o2)CC1 | active: 160 nM
COc1ccc(C(CC(=O)NCCCN2CCOCC2)NS(=O)(=O)c2ccc(C)cc2)cc1 (stereo not given) | inactive
O=C(CN1C(=O)c2cccc3cccc1c23)N1CCN(c2ccc(F)cc2)CC1 | active: 38 nM
O=C(NC1CCCCC1)N(Cc1nc2ccccc2c(=O)[nH]1)C1CCCCC1 | active: 22 nM
CCN1C(=O)C(C(=O)Nc2ccc(OC)cc2)C2CC1(C)Oc1ccccc12 (stereo not given) | inactive
Cc1oc(-c2cccc(Cl)c2)[n+]([O-])c1C | inconclusive: 2.3 nM
CCN1CCCC1CN(Cc1cc2cc(C)ccc2[nH]c1=O)C(=O)Nc1ccccc1OC (stereo not given) | inactive
Cc1cc(C)nc(Sc2c(C)nn(-c3ccccc3)c2C)n1 | inconclusive: 1.4 nM

Pulled by structure from the list above, 2 records:
SMILES | max dye-equivalent concentration
CCN1CCCC1CN(Cc1cc2cc(C)ccc2[nH]c1=O)C(=O)Nc1ccccc1OC (stereo not given) | inactive
C[C@H](NCCN(C)C)[C@@H]1CCC2C3CCc4cc(O)ccc4[C@H]3CCC21C (stereo not given in full) | inactive

More compounds:

SMILES | max dye-equivalent concentration
OCCNc1ncnc2c1ncn2[C@@H]1O[C@@H](CO)[C@H](O)[C@@H]1O | inactive
O=C(CSc1nc2ccccc2c(=O)n1CC1CCCO1)NCC1CCCO1 (stereo not given) | inconclusive: 6 nM
CN1CCN(c2ccc(NC(=O)c3ccc4c(c3)OCO4)cc2)CC1 | inactive
O=C1CCCC2=C1C(c1cccs1)n1ncnc1N2 (stereo not given) | active: 49 nM
COCCn1c(=O)c(-c2cc(F)cc(F)c2)nc2cnc(N(C)C)nc21 | inconclusive: 2.1 nM
O=C(OCc1nc2ccccc2c(=O)[nH]1)c1cccs1 | inconclusive: 3.3 nM
CCOc1ccc2[nH]c(=O)c(CN(Cc3ccc(F)cc3)C(=O)c3ccco3)cc2c1 | active: 50 nM
O=C(CSc1nnc(-c2ccc(NS(=O)(=O)c3ccccc3)cc2)o1)NCC1CCCO1 (stereo not given) | inactive
CCOc1ccccc1NC(=O)CCCc1nc2ccccc2c(=O)[nH]1 | inconclusive: 2.5 nM
COc1ccc(C2C(C(=O)N3CCN(c4ccc(OC)cc4)CC3)c3ccccc3C(=O)N2C)cc1 (stereo not given) | inactive
CCOC(=O)N1CCC(c2nc3ccccc3[nH]2)CC1 | inconclusive: 1.1 nM
N#CC1=C(N)OC(c2ccccc2)=C(C#N)C1c1ccc2c(c1)OCO2 (stereo not given) | inactive
O=C(Cn1c(=O)oc2cc(S(=O)(=O)N3CCCC3)ccc21)Nc1ccc(C(F)(F)F)cc1 | active: 17 nM
N#Cc1ccccc1OCC(=O)OCC(=O)c1ccc2c(c1)NC(=O)CO2 | inconclusive: 1.5 nM
CC1=CC2=NC(=O)CC(C)(C(=O)N(CC(=O)NC(C)(C)C)C3CCCC3)N2C=C1 (stereo not given) | active: 40 nM
COc1ccccc1Oc1c(C)oc2c(CN3CCN(CCO)CC3)c(O)ccc2c1=O | active: 2000 nM
CCN=C1SC(CC(=O)Nc2ccccc2)C(=O)N1CC (stereo not given) | inconclusive: 1.4 nM
NC(=O)CSc1nc(-c2ccccc2Cl)ns1 | inactive
CC(=O)NC(NC(C)=O)c1ccc(Br)cc1 | inconclusive: 1.6 nM
Cc1ccc(C2CC(C(F)(F)F)n3nc(C(=O)NCC4CCCO4)cc3N2)cc1 (stereo not given) | inactive
O=C(c1cccs1)N1CCN(C(=O)N2CCOCC2)CC1 | inconclusive: 1.4 nM
COc1ccc(CNc2ccnc(-c3ccc4c(c3)OCO4)n2)c(OC)c1 | active: 12 nM
CCN(CC)C(=O)CSc1nnc(-c2ccc(S(=O)(=O)NCc3ccccc3Cl)cc2)o1 | inconclusive: 1.3 nM

SMILES | max dye-equivalent concentration
CCn1c(Cc2cccn2C)nnc1SCC(=O)c1ccc(C)cc1 | inconclusive: 1.6 nM
c1ccc(Cn2nnc3c(Nc4ccc5c(c4)OCO5)nc(C4CC4)nc32)cc1 | active: 270 nM
COc1ccc(C2C3=C(CCCC3=O)Nc3nc(C(F)(F)F)nn32)c(OC)c1OC (stereo not given) | active: 25 nM
O=S1(=O)Nc2c(ccc3cccnc23)-c2ccccc21 | inconclusive: 1.6 nM
Cc1cc(Cl)c(S(=O)(=O)NCc2cccnc2)cc1OCC(N)=O | inconclusive: 2.1 nM
CC(C)[C@H](NC(=O)NCc1cccs1)C(=O)O | inactive
COc1ccc(N2CCn3c2nc2c3c(=O)n(CCc3ccccc3)c(=O)n2C)c(OC)c1 | inconclusive: 3.8 nM
O=C(Cc1cn2ccsc2n1)OCc1nc2ccccc2s1 | inactive
CC(=O)n1nc(-c2ccccc2)nc1NCc1ccc(F)cc1 | inactive
CCC(=O)c1cc2c(C)cc(=O)oc2c(C)c1O | inconclusive: 1.4 nM
COC(=O)C(NC(=O)c1ccco1)(Nc1ccc(Br)cn1)C(F)(F)F (stereo not given) | inconclusive: 1.9 nM
Cc1cnc(CNc2ncnc3ccc(-c4cccc(NS(C)(=O)=O)c4)cc23)cn1 | inactive
COc1cccc(N2CCN(C(=O)c3ccc(=O)oc3)CC2C)c1 (stereo not given) | active: 83 nM
O=C1c2cccc3c(N4CCCCC4)ccc(c23)C(=O)N1c1ccccn1 | active: 28 nM
CCOc1cccc2cc(C(=O)NCc3cccnc3)c(=O)oc12 | inconclusive: 9.6 nM
CS(=O)(=O)N(CC(=O)O)c1cc(Cl)cc(Cl)c1 | inconclusive: 2.8 nM
O=C(c1cc(Br)ccc1O)c1cc(Br)ccc1O | inactive
CCN1CCCC1CNC(=O)c1cc2c(-c3cccc(OC)c3)nn(C)c2s1 (stereo not given) | inconclusive: 2.9 nM
Cc1sc2nnn(CC(=O)N3CCN(C(=O)c4ccco4)CC3)c(=O)c2c1C | active: 100 nM
COc1ccc(CNC(=O)CN(CC2CCCO2)C(=O)CNS(=O)(=O)c2ccc(F)cc2)cc1 (stereo not given) | inconclusive: 1.4 nM
COCCCn1cnc2c(c1=O)c1nc3ccccc3nc1n2-c1ccc(C)cc1 | active: 260 nM
